The list shows a part of the results. Shown are side measurements of this screen, not its main read-out; they come without a call. The list favours compounds with an active or inconclusive main result. Words in brackets tell the shape of the fitted curve; partial curves, single points and poor fits give uncertain potencies.
Assay: Cell signaling CRE-BLA (Fsk stim)
Settings: CHO CRE-bla reporter (cAMP response element driving beta-lactamase), forskolin EC10, beta-lactamase ratio; measured here: 460 nm blue channel
How it was run: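 Beta-lactamase reporter under a cAMP responsive element in CHO cells; compounds tested in titration series against EC10 NKH 477, 3 h at 37 °C. Read-out: CCF4 FRET ratio 460nm/530nm (excitation 405nm) giving %Activity, fitted to AC50.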

Compound | AC50
CSc1nnc(-c2ccco2)n1-c1ccccc1 | 10 µM [rising, single point]
CCOC(=O)C1CCN(c2cc(C)nc3cc(-c4cccc(F)c4)nn23)CC1 | 12.6 µM [rising, partial curve]
Cc1nc2ccccc2nc1OCC(=O)Nc1cc(C(F)(F)F)ccc1N1CCOCC1 | 10 µM [rising, partial curve]
CCc1c(C(=O)NCc2ccc3c(c2)OCO3)[nH]c(C)c1C(C)=O | 1 µM [falling, single point]
Cc1c(NC(=O)c2cc(C(C)C)on2)c(=O)n(-c2ccccc2)n1C | 5.01 µM [falling, partial curve, poor fit]
CCOC(=O)c1[nH]c(C)c(CN(CCc2ccccc2)S(C)(=O)=O)c1C | 3.98 µM [rising, full curve]
O=C(NCCc1cn2ccsc2n1)c1cccs1 | 12.6 µM [rising, partial curve]
COc1ccc(-n2nnc3c(=O)n(CC(=O)N4CCCc5ccccc54)cnc32)cc1 | 15.8 µM [rising, single point]
CN1CCN(c2ncc3nc(-c4cc(F)cc(F)c4)c(=O)n(C4CC4)c3n2)CC1 | 10 µM [rising, partial curve]
O=c1nc2n(c3c1oc1ccccc13)Cc1ccccc1-2 | 5.01 µM [rising, partial curve]
O=c1cc(CSc2nnc(COc3ccccc3Cl)o2)nc2sccn12 | 12.6 µM [rising, single point]
CCC(=O)c1cc(F)c(N2CCN(S(=O)(=O)c3ccc(C)cc3)CC2)cc1C | 0.501 µM [rising, full curve]
CCCC/C=C/C(NC(=O)OCc1ccccc1Cl)c1ccccc1 (centres undefined) | 12.6 µM [rising, single point]
Cc1sc2nc3n(c(=O)c2c1C)CCCS3 | 12.6 µM [rising, single point]
O=C(Nc1ccc2nc(-c3cccs3)[nH]c2c1)c1cccs1 | 2.51 µM [rising, full curve]
CC1CC(C)(C)NC(=S)S1 (centres undefined) | 0.0251 µM [rising, partial curve]
COc1ccc(-c2nn(C)c(=O)c3ccccc23)cc1CNC(=O)c1ccco1 | 6.31 µM [rising, partial curve]
C=CCn1c(COc2ccc(Cl)cc2)nnc1SCc1ccc(C#N)cc1 | 0.316 µM [rising, full curve, poor fit]
COc1ccc(/C=N/c2nc3ccccc3n2C)cc1OC | 12.6 µM [rising, partial curve]
N#Cc1ccc(CN2CCN(C(=O)c3ccccc3)CC2)c(Cl)c1 | 3.98 µM [falling, partial curve]
CCOC(=O)N1CCN(S(=O)(=O)c2ccc(F)c(C(=O)Nc3cc(C)cc(C)c3)c2)CC1 | 0.501 µM [rising, full curve, poor fit]
CCCCOc1ccc(CC(=O)NO)cc1 | 1 µM [rising, partial curve]

Ordered by number of heavy atoms (smallest number first): 3 of the compounds above
Compound | AC50
N#Cc1ccc(CN2CCN(C(=O)c3ccccc3)CC2)c(Cl)c1 | 3.98 µM [falling, partial curve]
O=c1cc(CSc2nnc(COc3ccccc3Cl)o2)nc2sccn12 | 12.6 µM [rising, single point]
CCOC(=O)N1CCN(S(=O)(=O)c2ccc(F)c(C(=O)Nc3cc(C)cc(C)c3)c2)CC1 | 0.501 µM [rising, full curve, poor fit]

Additional records.

Compound | AC50
COc1ccccc1N(CC(=O)N1CCCCCC1)S(C)(=O)=O | 0.398 µM [rising, partial curve]
Oc1c(Cl)cc(Cl)cc1Sc1cc(Cl)cc(Cl)c1O | 3.98 µM [falling, full curve]
CCOC(=O)c1c(C)nc2sccn12 | 12.6 µM [rising, partial curve]
COC(=O)c1cc(Br)ccc1-c1ccc(/C=N/n2nnnc2N)o1 | 3.98 µM [rising, partial curve]
COc1cccc(Cn2c(=O)c(-c3ccc(F)cc3)nc3cnc(N4CCOCC4)nc32)c1 | 0.398 µM [rising, full curve]
CCc1ccc(-c2nc(CN3CCC(C(=O)N4CCN(c5ccccc5)CC4)CC3)c(C)o2)cc1 | 3.98 µM [falling, full curve]
O=c1c(-c2ccc(F)cc2)nc2cnc(N3CCOCC3)nc2n1Cc1ccc(F)cc1 | 1 µM [rising, partial curve]
CCOc1ccc(-c2nnn(CC(=O)Nc3cccc(OC)c3)n2)cc1OCC | 5.01 µM [rising, partial curve]
COc1cccc(S(=O)(=O)NCc2ccc(C(=O)NCc3ccco3)cc2)c1 | 6.31 µM [falling, partial curve, poor fit]
CCC(C)n1cnc2c(c1=O)c1nc3ccccc3nc1n2Cc1ccc2c(c1)OCO2 (centres undefined) | 12.6 µM [rising, partial curve]
CCOC(=O)C1CCCN(C(=O)CNS(=O)(=O)c2ccc(Br)s2)C1 (centres undefined) | 15.8 µM [rising, single point]
CCn1nc(CC(=O)Nc2ccc(-n3cnnn3)c(C)c2)c2ccccc2c1=O | 20 µM [rising, single point]
Cc1noc(C)c1-c1ccc2ncnc(Nc3ccccc3)c2c1 | 2.51 µM [rising, full curve, poor fit]
Cc1cc(C)nc(N2CCC(C(=O)N3CCN(c4cc(Cl)ccc4C)CC3)CC2)n1 | 15.8 µM [falling, single point]
O=C(COc1ncnc2ccccc12)N1CCN(C(=O)c2ccco2)CC1 | 3.98 µM [falling, single point]
CCCCOC(=O)C1=C(C)Nc2ncnn2C1c1cccc(OC)c1OC (centres undefined) | 0.00398 µM [falling, full curve]
COc1ccc(-n2c(=O)c3c4c(sc3n3cnnc23)CC(C)CC4)cc1 (centres undefined) | 10 µM [rising, partial curve]
CS(=O)(=O)Nc1cccc(-c2nc(-n3ccnc3)c3ccccc3n2)c1 | 10 µM [rising, partial curve]
CSc1c(C#N)c(N)c(C#N)c2c1COC(C)(C)C2 | 3.16 µM [rising, full curve]
CCN(CCCNC(=O)c1[nH]c(C)c(C(C)=O)c1C)c1cccc(C)c1 | 3.16 µM [rising, single point]
O=c1cc(-c2cccc(O)c2)oc2c(O)c(O)ccc12 | 0.398 µM [rising, partial curve, poor fit]
COc1ccc(-n2c3c(cc(C(=O)N4CCN(CCO)CC4)c2=O)C(=O)CC(C)(C)C3)cc1 | 0.00316 µM [falling, full curve, poor fit]

Two entries from above, as comma-separated lines:
Compound,AC50
CS(=O)(=O)Nc1cccc(-c2nc(-n3ccnc3)c3ccccc3n2)c1,"10 µM [rising, partial curve]"
O=c1cc(-c2cccc(O)c2)oc2c(O)c(O)ccc12,"0.398 µM [rising, partial curve, poor fit]"
